In PMC6468676, “The Protein Tyrosine Phosphatase H1 PTPH1 Supports Proliferation of Keratinocytes and is a Target of the Human Papillomavirus Type 8 E6 Oncogene” (Cells, 2019):
Results are given in words; binding and its absence hold for the method and conditions named. Binding seen in cells or lysates may run through a third protein. Some results given as binding are weak or reduced against the parent protein; the word gives no strength. For some of these results: Tags and fused reporters may be left off the sequences shown.

The chains behind the UniProt entries cited, without tags or fusion partners.
UniProt P06428: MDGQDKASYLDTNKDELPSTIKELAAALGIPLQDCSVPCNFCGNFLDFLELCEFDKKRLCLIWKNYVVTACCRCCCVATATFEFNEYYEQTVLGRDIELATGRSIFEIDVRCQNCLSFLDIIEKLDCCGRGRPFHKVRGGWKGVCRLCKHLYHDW

What was measured:
[1] = biological target: FLAG-tagged HPV8E6 (E6 oncoprotein of human papillomavirus type 8), wild type (human papillomavirus type 8) (UniProt P06428); assay: co-IP; C33A cells co-transfected with Myc-PTPH1 (wt or deletion mutants) and pXJ41-FLAG-HPV8E6 (wt or point mutants); extracts incubated with FLAG beads, co-precipitated Myc-PTPH1 detected by WB
GST-PTPH1 = GST-PTPH1 (UniProt P26045); assay: pull-down; bacterially expressed, purified GST-PTPH1 incubated with extracts from cells expressing FLAG-p38γ alone or together with FLAG-HPV8E6; blot developed with FLAG antibody; only the target purified
[2] = biological target: T1, FLAG-p38γ (mitogen activated protein kinase MAPK12) (UniProt P53778); assay: co-IP; extracts from C33A cells expressing FLAG-p38γ and Myc-PTPH1, with or without HA-HPV8E6; FLAG beads; blots developed with epitope tag antibodies
T1 sequence: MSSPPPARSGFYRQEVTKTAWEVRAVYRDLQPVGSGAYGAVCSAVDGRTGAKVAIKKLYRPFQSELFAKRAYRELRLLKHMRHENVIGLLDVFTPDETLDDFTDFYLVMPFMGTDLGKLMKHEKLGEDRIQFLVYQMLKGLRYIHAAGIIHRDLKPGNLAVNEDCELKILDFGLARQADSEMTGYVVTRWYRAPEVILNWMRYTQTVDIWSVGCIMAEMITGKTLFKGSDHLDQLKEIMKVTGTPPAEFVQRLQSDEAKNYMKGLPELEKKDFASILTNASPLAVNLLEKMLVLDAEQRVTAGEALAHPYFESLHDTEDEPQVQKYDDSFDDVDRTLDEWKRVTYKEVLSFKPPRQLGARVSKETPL

## Myc-tagged protein tyrosine phosphatase H1 (PTPH1), full length (from UniProt P26045 1-913) (enzyme)
[1]
  binding: binds

## Myc-PTPH1ΔBand4.1ΔPTPc (central amino acids 334-669) (from UniProt P26045 334-669) (domain or fragment)
[1]
  binding: binds

B1: FLAG-p38γ (mitogen activated protein kinase MAPK12) (enzyme, UniProt P53778 1-367)
chain: MSSPPPARSGFYRQEVTKTAWEVRAVYRDLQPVGSGAYGAVCSAVDGRTGAKVAIKKLYRPFQSELFAKRAYRELRLLKHMRHENVIGLLDVFTPDETLDDFTDFYLVMPFMGTDLGKLMKHEKLGEDRIQFLVYQMLKGLRYIHAAGIIHRDLKPGNLAVNEDCELKILDFGLARQADSEMTGYVVTRWYRAPEVILNWMRYTQTVDIWSVGCIMAEMITGKTLFKGSDHLDQLKEIMKVTGTPPAEFVQRLQSDEAKNYMKGLPELEKKDFASILTNASPLAVNLLEKMLVLDAEQRVTAGEALAHPYFESLHDTEDEPQVQKYDDSFDDVDRTLDEWKRVTYKEVLSFKPPRQLGARVSKETPL
GST-PTPH1
  binding: binds

B2: Myc-tagged protein tyrosine phosphatase H1 (PTPH1), full length (enzyme, UniProt P26045 1-913, looked up)
chain: MTSRLRALGGRINNIRTSELPKEKTRSEVICSIHFLDGVVQTFKVTKQDTGQVLLDMVHNHLGVTEKEYFGLQHDDDSVDSPRWLEASKAIRKQLKGGFPCTLHFRVRFFIPDPNTLQQEQTRHLYFLQLKMDICEGRLTCPLNSAVVLASYAVQSHFGDYNSSIHHPGYLSDSHFIPDQNEDFLTKVESLHEQHSGLKQSEAESCYINIARTLDFYGVELHSGRDLHNLDLMIGIASAGVAVYRKYICTSFYPWVNILKISFKRKKFFIHQRQKQAESREHIVAFNMLNYRSCKNLWKSCVEHHTFFQAKKLLPQEKNVLSQYWTMGSRNTKKSVNNQYCKKVIGGMVWNPAMRRSLSVEHLETKSLPSRSPPITPNWRSPRLRHEIRKPRHSSADNLANEMTYITETEDVFYTYKGSLAPQDSDSEVSQNRSPHQESLSENNPAQSYLTQKSSSSVSPSSNAPGSCSPDGVDQQLLDDFHRVTKGGSTEDASQYYCDKNDNGDSYLVLIRITPDEDGKFGFNLKGGVDQKMPLVVSRINPESPADTCIPKLNEGDQIVLINGRDISEHTHDQVVMFIKASRESHSRELALVIRRRAVRSFADFKSEDELNQLFPEAIFPMCPEGGDTLEGSMAQLKKGLESGTVLIQFEQLYRKKPGLAITFAKLPQNLDKNRYKDVLPYDTTRVLLQGNEDYINASYVNMEIPAANLVNKYIATQGPLPHTCAQFWQVVWDQKLSLIVMLTTLTERGRTKCHQYWPDPPDVMNHGGFHIQCQSEDCTIAYVSREMLVTNTQTGEEHTVTHLQYVAWPDHGVPDDSSDFLEFVNYVRSLRVDSEPVLVHCSAGIGRTGVLVTMETAMCLTERNLPIYPLDIVRKMRDQRAMMVQTSSQYKFVCEAILRVYEEGLVQMLDPS
[2]
  binding: binds
